In PubChem BioAssay AID493014 (National Center for Advancing Translational Sciences (NCATS), 2011):
The list shows a part of the results. The main result of the screen is listed elsewhere. These columns were measured beside it and carry no call. Compounds called inactive in the main read-out are mostly missing here. Words in brackets tell the shape of the fitted curve; partial curves, single points and poor fits give uncertain potencies.

Assay: qHTS Assay to Find Inhibitors of Chronic Active B-Cell Receptor Signaling
Conditions: ABC-DLBCL IkBa-CBG/CBR reporter, luminescence ratio (green luciferase fused to IkBa over red control in TMD8 lymphoma cells), 4 h
Method in brief: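 Doxycycline induced both beetle luciferases in TMD8 lymphoma cells; IKK-driven degradation limits the IkappaBalpha-fused green signal, while red luminescence normalises for cell number and nonspecific effects. Compounds tested up to 46 uM, 4 hrs.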

[1] = measured here: CBR red luminescence, cell number
[2] = measured here: IkBa-CBG green luminescence

Row | Structure (SMILES) | AC50 [1] | AC50 [2]
1 | Cc1cc(C(=O)CCC(=O)NNC(=O)c2ccccc2O)c(C)s1 | 16.4 µM [falling, single point] | –
2 | COCCn1nnnc1C(C(C)C)N(Cc1cccnc1)Cc1ccccc1Cl (configuration not stated) | 0.461 µM [falling, partial curve, poor fit] | –
3 | CC(C)C(NC(=O)C1CCCCC1)C(=O)Nc1ccc2c(c1)OCCO2 (configuration not stated) | 6.31 µM [rising, single point] | –
4 | O=C(Nc1ccccc1N1CCCCC1)c1ccc(OC(F)F)cc1 | 11.2 µM [rising, partial curve] | –
5 | CCOc1nc(C)cc(C)c1S(=O)(=O)c1ccc(Cl)cc1 | 0.1 µM [rising, full curve, poor fit] | –
6 | CCn1c(=O)c2cc(C(=O)Nc3ccccc3OC)sc2c2ccccc21 | 0.282 µM [falling, full curve] | –
7 | Cc1ccc(/C=N/NC(=O)C(O)c2ccccc2)o1 (configuration not stated) | 10 µM [falling, partial curve, poor fit] | –
8 | Cc1noc(NS(=O)(=O)c2ccc(N/C=C/C(=O)c3cccnc3)cc2)c1C | 18.4 µM [rising, partial curve, poor fit] | –
9 | COc1cccc(/C=N/Nc2cc(C)nc(-c3ccccc3O)n2)c1O | 5.01 µM [falling, full curve] | 3.55 µM [rising, full curve]
10 | COc1ccccc1N1CCN(C(=O)c2oc3cc(C)c(C)cc3c2C)CC1 | 0.92 µM [falling, full curve, poor fit] | –
11 | Cn1nc(-c2ccccc2)cc1NC(=O)c1ccc(Cl)cc1 | 20.6 µM [rising, single point] | –
12 | COn1c(=O)c(-c2cccs2)[n+]([O-])c2ccccc21 | 1.41 µM [rising, partial curve, poor fit] | –
13 | CCc1cc2c(NCC(=O)O)ncnc2s1 | 9.2 µM [rising, partial curve, poor fit] | –
14 | Cc1cc(C)cc(C(=O)OCC(=O)NCCNC(=O)COC(=O)c2cc(C)cc(C)c2)c1 | 12.6 µM [falling, single point] | –
15 | COc1ccc(OC)c(CN2CCN(C(=O)c3cccc(S(=O)(=O)Nc4ccccc4OC)c3)CC2)c1 | 6.51 µM [falling, partial curve] | –
16 | Cc1ccc(-n2ncc3c(NCCCOC(C)C)ncnc32)c(C)c1 | 25.1 µM [falling, partial curve, poor fit] | –
17 | O=C(Nc1cccc2c1CCCC2)c1ccccc1Br | 2 µM [rising, full curve, poor fit] | –
18 | Fc1ccc(C2c3[nH]c4ccccc4c3CCN2CCCn2cccn2)cc1 (configuration not stated) | 11.2 µM [falling, partial curve, poor fit] | 14.1 µM [rising, partial curve, poor fit]
19 | Cc1nc(SCc2ccc(Cl)c(Cl)c2)ncc1C(=O)O | 22.4 µM [falling, single point] | –
20 | CCc1noc(C)c1C(=O)NNC(=O)COc1cc(C)ccc1C | 23.1 µM [rising, single point] | 29.1 µM [falling, partial curve, poor fit]
21 | CCC(C)NS(=O)(=O)c1ccc(OCC(=O)Nc2ccc(F)cc2F)cc1 (configuration not stated) | 0.0517 µM [rising, full curve, poor fit] | –

Row | Structure (SMILES) | AC50 [1] | AC50 [2]
22 | Cc1cccc(NC(=O)CS(=O)(=O)c2cn(C)c3ccccc23)c1C | 29.1 µM [falling, single point] | –
23 | CCOc1ccc(NC(=O)c2cc3n(n2)C(C(F)(F)F)CC(c2ccco2)N3)cc1 (configuration not stated) | 4.47 µM [rising, partial curve, poor fit] | –
24 | CCOc1cc(/C=C/C(=O)c2ccc(O)cc2)ccc1OCC(=O)N(C)C | 20.6 µM [falling, partial curve] | –
25 | O=C(O)C1CCCCC1C(=O)Nc1cccc(Cl)c1Cl (configuration not stated) | 5.62 µM [rising, single point] | –
26 | Cc1ccc(NC(=O)C(C)OC(=O)CCC2CCCCC2)cc1 (configuration not stated) | 29.1 µM [falling, single point] | –
27 | CCN(C(=O)c1cc2ccccc2oc1=O)c1ccccc1 | 29.1 µM [falling, single point] | –
28 | NC(=O)C1CCN(C(=O)c2ccc3nc(N4CCCCC4)sc3c2)CC1 | 35.5 µM [rising, single point] | –
29 | COc1cc2c(OC(C)=O)c3c(c(-c4ccc5c(c4)OCO5)c2cc1OC)C(=O)OC3 | 3.55 µM [rising, full curve] | –
30 | COc1ccc(NC(=O)OCCN2CCN(Cc3ccccc3)CCC2=O)cc1 | 14.6 µM [rising, partial curve, poor fit] | –
31 | C=CCn1c(N)c(C(=O)OCCC)c2nc3ccccc3nc21 | 6.31 µM [falling, full curve, poor fit] | –
32 | CC1CCN(C2CC(=O)N(c3ccc(Br)cc3Br)C2=O)CC1 (configuration not stated) | 7.94 µM [falling, partial curve, poor fit] | –
33 | c1ccc(-n2ncc3c(NC4CCCC4)ncnc32)cc1 | 2.51 µM [falling, full curve] | 0.631 µM [rising, full curve]
34 | COc1ccc2nc(NC(=O)c3cccc(N4C(=O)CCC4=O)c3)sc2c1 | 9.2 µM [falling, partial curve, poor fit] | –
35 | CCOC(=O)N1CCN(c2ncnc3scc(-c4ccccc4)c23)CC1 | 6.31 µM [falling, partial curve, poor fit] | –
36 | CC1CCc2c(sc3ncnc(SC(C)C(=O)NCC4CCCO4)c23)C1 (configuration not stated) | 29.1 µM [falling, single point] | –
37 | Cc1ccc(OCc2cc(C(=O)NCCn3cccn3)no2)cc1C | 22.4 µM [falling, single point] | –
38 | COCCOC(=O)C1=C(N)OC2=C(C(=O)CCC2)C1c1cccnc1 (configuration not stated) | 0.224 µM [falling, full curve, poor fit] | –
39 | Cn1c(SCC(=O)N/N=C/c2cccs2)nc2ccccc21 | 2.59 µM [rising, partial curve, poor fit] | –
40 | NC(=O)c1ccccc1NS(=O)(=O)Cc1ccc(Cl)cc1 | 0.651 µM [rising, full curve] | –
41 | Cc1ccc(-c2ccnc3[nH]n(-c4ccccc4)c(=O)c23)cc1 | 8.91 µM [falling, partial curve, poor fit] | –
42 | COc1ccc(COc2ccccc2C(=O)NCc2ccccc2)cc1F | 2.91 µM [falling, partial curve] | –

Row | Structure (SMILES) | AC50 [1] | AC50 [2]
43 | COC(=O)c1cc2n(n1)CCN(Cc1ccccc1F)C2=O | 31.6 µM [falling, single point] | –
44 | CCOC(=O)c1sc(NC(=O)CSc2nnnn2-c2ccc(C)cc2)c(C(=O)OCC)c1C | 0.92 µM [rising, partial curve] | –
45 | COc1c(C)cc(C(=O)C2CCCN(Cc3cccc4nccnc34)C2)cc1C (configuration not stated) | 2.82 µM [rising, full curve, poor fit] | –
46 | CCNC(=O)C(=O)Nc1ccc(OC)c(Cl)c1 | 6.31 µM [rising, partial curve, poor fit] | –
47 | O=C(CCN1CCN(C(c2ccccc2)c2ccccc2)CC1)N/N=C/c1ccc(O)cc1O | 18.4 µM [falling, partial curve] | –
48 | CCn1c(=O)c(CCC(=O)NCC2CCCO2)c(C)c2c(C)nn(-c3ccccc3)c21 (configuration not stated) | 28.2 µM [falling, single point] | –
49 | CC(=O)Nc1c(O)nc(SCC(=O)Nc2cccc(C)c2)[nH]c1=O | 0.103 µM [falling, full curve, poor fit] | –
50 | C[C@@H]1NC(=O)N(CCCn2ccnc2)C1=O | 35.5 µM [rising, single point] | –
51 | COc1ccc(NC(=O)c2cccc(OS(=O)(=O)N(C)C)c2)cc1 | 20 µM [falling, partial curve, poor fit] | –
52 | CCCS(=O)(=O)n1nc(-c2ccc(Br)cc2)cc1N | 0.103 µM [rising, full curve, poor fit] | –
53 | Cc1nn(-c2ccccc2)c2sc(-c3nnc(SCC(=O)O)o3)cc12 | 8.2 µM [falling, partial curve, poor fit] | –
54 | CC1=NN(C(=O)c2ccc(Cl)cc2)C(O)(c2ccccc2)C1 (configuration not stated) | 35.5 µM [falling, single point] | –
55 | Cc1ncoc1C(=O)N1CCc2c([nH]c3ccccc23)C1C1CCCCC1 (configuration not stated) | 3.98 µM [falling, partial curve, poor fit] | –
56 | COC(=O)c1ccccc1NC(=O)CN1CCC(C(=O)c2ccc3c(c2)OCCO3)CC1 | 11.2 µM [falling, single point] | –
57 | Cc1ccc(N2CCN(c3ccc(C)cc3)C2c2ccncc2)cc1 | 10 µM [rising, partial curve, poor fit] | –
58 | Cc1ccc(NC(=O)c2ccsc2)cc1NS(C)(=O)=O | 5.01 µM [rising, full curve, poor fit] | –
59 | CCCCSCCCNC(=O)c1ccc2c(c1)N(CC)C(=O)c1ccccc1S2=O (configuration not stated) | 22.4 µM [falling, partial curve, poor fit] | –
60 | Cc1ccc(NC(=S)Nc2cccc3ccccc23)cc1F | 1.41 µM [falling, full curve, poor fit] | –
61 | O=C(NCCC(=O)N1CCCC(C(F)(F)F)C1)c1ccccc1Cl (configuration not stated) | 35.5 µM [falling, single point] | –
62 | COC(=O)c1c(NC(=O)Cc2ccccc2)sc2c1C(C(=O)OC)CC2 (configuration not stated) | 12.6 µM [rising, single point] | –
63 | O=C(NNC(=O)C1C2CCC(C2)C1C(=O)O)c1ccc(Br)o1 (configuration not stated) | 23.1 µM [falling, single point] | –

A second format for 3 compounds above:
O=C(CCN1CCN(C(c2ccccc2)c2ccccc2)CC1)N/N=C/c1ccc(O)cc1O
  AC50 [1]: 18.4 µM [falling, partial curve]
CCn1c(=O)c(CCC(=O)NCC2CCCO2)c(C)c2c(C)nn(-c3ccccc3)c21 (configuration not stated)
  AC50 [1]: 28.2 µM [falling, single point]
CC(=O)Nc1c(O)nc(SCC(=O)Nc2cccc(C)c2)[nH]c1=O
  AC50 [1]: 0.103 µM [falling, full curve, poor fit]
